This note sets out measurements from article doi:10.1101/2022.04.06.487319 (bioRxiv, 2022).

The target in assay [1] is T1, strep-Hop1 (SF9 co-expression) (Saccharomyces cerevisiae) (UniProt P20050).
T1 sequence: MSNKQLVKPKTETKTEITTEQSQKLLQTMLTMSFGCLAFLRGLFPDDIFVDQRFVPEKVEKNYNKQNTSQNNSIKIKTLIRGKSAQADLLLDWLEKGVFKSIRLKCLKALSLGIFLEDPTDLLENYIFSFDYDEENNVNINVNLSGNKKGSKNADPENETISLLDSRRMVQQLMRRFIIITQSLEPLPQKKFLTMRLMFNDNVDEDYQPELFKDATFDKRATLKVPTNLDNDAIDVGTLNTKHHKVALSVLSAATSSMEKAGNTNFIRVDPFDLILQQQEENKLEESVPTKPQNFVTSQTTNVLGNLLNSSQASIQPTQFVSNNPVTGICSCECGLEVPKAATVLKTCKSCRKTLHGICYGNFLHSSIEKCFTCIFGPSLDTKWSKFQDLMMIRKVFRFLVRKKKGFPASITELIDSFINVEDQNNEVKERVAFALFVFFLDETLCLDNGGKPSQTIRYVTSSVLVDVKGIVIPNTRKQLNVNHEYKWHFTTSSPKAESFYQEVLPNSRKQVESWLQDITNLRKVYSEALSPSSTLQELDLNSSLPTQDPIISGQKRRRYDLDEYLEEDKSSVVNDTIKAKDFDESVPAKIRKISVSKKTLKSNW
Put plainly: pull-down.

Assay [2] has as its target T2, strep-Hop1 HORMA domain (Saccharomyces cerevisiae) (UniProt P20050).
T2 sequence: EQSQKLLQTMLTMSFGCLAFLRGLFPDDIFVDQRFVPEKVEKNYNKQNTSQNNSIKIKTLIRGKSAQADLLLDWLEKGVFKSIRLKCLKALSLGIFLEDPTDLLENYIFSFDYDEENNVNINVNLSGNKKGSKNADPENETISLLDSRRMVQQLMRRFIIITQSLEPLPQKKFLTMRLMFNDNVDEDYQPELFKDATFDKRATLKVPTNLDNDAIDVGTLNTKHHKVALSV
Put plainly: pull-down.

In assay [3] the target is T3, Mek1-strep (full-length Mek1 with Twin-StrepII tag) (Saccharomyces cerevisiae) (UniProt P24719).
T3 sequence: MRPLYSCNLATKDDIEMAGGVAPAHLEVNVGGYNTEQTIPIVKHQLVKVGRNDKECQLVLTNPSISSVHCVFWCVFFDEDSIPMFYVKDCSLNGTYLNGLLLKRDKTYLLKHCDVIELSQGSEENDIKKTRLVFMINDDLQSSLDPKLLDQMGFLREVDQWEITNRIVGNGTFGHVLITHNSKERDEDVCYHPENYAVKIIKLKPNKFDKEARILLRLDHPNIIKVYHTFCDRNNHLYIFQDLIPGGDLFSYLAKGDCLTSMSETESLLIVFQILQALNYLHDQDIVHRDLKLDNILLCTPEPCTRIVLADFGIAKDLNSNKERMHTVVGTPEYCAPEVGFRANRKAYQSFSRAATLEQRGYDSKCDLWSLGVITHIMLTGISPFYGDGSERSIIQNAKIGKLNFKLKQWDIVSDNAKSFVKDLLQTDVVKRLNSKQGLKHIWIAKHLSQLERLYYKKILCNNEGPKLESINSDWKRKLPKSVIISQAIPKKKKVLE
Put plainly: pull-down.

Assay [4] has as its target strep-Hop1 (full length, WT, E. coli) (Saccharomyces cerevisiae) (UniProt P20050). The assay is described as follows: SEC. In general terms: SEC sorts molecules by how far they enter the pores of the column.
The target of assay [5] is T4, GFP-Mek1 (pGAL1::GFP-MEK1) (Saccharomyces cerevisiae) (UniProt P24719).
T4 sequence: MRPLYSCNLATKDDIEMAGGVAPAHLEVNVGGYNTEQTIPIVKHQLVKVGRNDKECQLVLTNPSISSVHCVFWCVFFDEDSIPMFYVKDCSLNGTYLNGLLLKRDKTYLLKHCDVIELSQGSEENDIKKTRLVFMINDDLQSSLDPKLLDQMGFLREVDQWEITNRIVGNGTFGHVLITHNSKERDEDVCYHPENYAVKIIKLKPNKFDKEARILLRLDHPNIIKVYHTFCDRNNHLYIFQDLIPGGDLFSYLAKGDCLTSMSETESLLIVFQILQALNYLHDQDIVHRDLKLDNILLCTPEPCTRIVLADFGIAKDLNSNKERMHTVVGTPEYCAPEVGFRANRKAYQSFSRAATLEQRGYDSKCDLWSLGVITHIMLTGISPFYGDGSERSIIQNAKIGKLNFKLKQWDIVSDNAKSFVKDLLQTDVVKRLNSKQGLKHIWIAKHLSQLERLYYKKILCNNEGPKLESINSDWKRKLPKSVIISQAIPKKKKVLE
The assay is described as follows: co-IP.

These are yes or no findings as the source states them, for the method shown. For some of these results: Binding seen in cells or lysates may run through a third protein. Some results given as binding are weak or reduced against the parent protein; the word gives no strength. For some of these results: Tags and fused reporters may be left off the sequences shown.

Regarding “MBP-Red1^1-230 (from UniProt P14291 1-230) (domain or fragment)”, the binding entry in assay [1] is “binds”. Still for that read-out and setting: the same measure for “MBP-Red1^230-345 (from UniProt P14291 230-345) (domain or fragment)”: “binds”.

B1: MBP-Red1 (340-362), wild-type closure motif (peptide, UniProt P14291 340-362, looked up)
chain: FHNVNNIPKISEVQNFLVLDYIE
B1: the binding result in assay [2] is reported as “binds”.

B2: MBP-Red1^230-345 (domain or fragment, UniProt P14291 230-345)
chain: SFTGILRQVSYSGSETLKNLRIFKKKDDENSYFIQCIYNKIYLWLDEKAPLEFERKKIRITKNLKNKIQIKLRQPFHECVRTTADKTALLFNKTKGFQLEFEDEKLGETFFHNVNN
On to B2, for which the binding entry in assay [3] was “binds”.

B3: MBP-Red1^1-362 (insect cells) (domain or fragment, UniProt P14291 1-362)
chain: MEGLKKKIFGVCLKNDLAQTRNETKGIHYGLMTLETSKQLQEFLHLLVIKREVIQNFELLFHIINVAVKITDSNLPSDDIWHFILKLRFSSEINIDEDSKVLNYLLETGIAMENPVSWKCLAVISSILSSVPQSKKIITNLIETEHAKKIGQLFDNIQDLQQGNFLVEILSNCFKKSASNSKKVEKIPQLWQSRSKNKFFFENEFYPFSSKNGSLQTCQFLCNNFMSTLSFTGILRQVSYSGSETLKNLRIFKKKDDENSYFIQCIYNKIYLWLDEKAPLEFERKKIRITKNLKNKIQIKLRQPFHECVRTTADKTALLFNKTKGFQLEFEDEKLGETFFHNVNNIPKISEVQNFLVLDYIE
As to B3, in assay [3], the binding entry is listed as “binds”.

B4: MBP-Red1 (1-362) WT (E. coli) (domain or fragment, UniProt P14291 1-362)
chain: MEGLKKKIFGVCLKNDLAQTRNETKGIHYGLMTLETSKQLQEFLHLLVIKREVIQNFELLFHIINVAVKITDSNLPSDDIWHFILKLRFSSEINIDEDSKVLNYLLETGIAMENPVSWKCLAVISSILSSVPQSKKIITNLIETEHAKKIGQLFDNIQDLQQGNFLVEILSNCFKKSASNSKKVEKIPQLWQSRSKNKFFFENEFYPFSSKNGSLQTCQFLCNNFMSTLSFTGILRQVSYSGSETLKNLRIFKKKDDENSYFIQCIYNKIYLWLDEKAPLEFERKKIRITKNLKNKIQIKLRQPFHECVRTTADKTALLFNKTKGFQLEFEDEKLGETFFHNVNNIPKISEVQNFLVLDYIE
For the molecule B4, in assay [2], the binding result is “binds”.

B5: MBP-Red1^1-230 (domain or fragment, UniProt P14291 1-230)
chain: MEGLKKKIFGVCLKNDLAQTRNETKGIHYGLMTLETSKQLQEFLHLLVIKREVIQNFELLFHIINVAVKITDSNLPSDDIWHFILKLRFSSEINIDEDSKVLNYLLETGIAMENPVSWKCLAVISSILSSVPQSKKIITNLIETEHAKKIGQLFDNIQDLQQGNFLVEILSNCFKKSASNSKKVEKIPQLWQSRSKNKFFFENEFYPFSSKNGSLQTCQFLCNNFMSTLS
In the case of B5, the binding result in assay [3] was “binds”.

B6: strep-Hop1 (full length, WT, E. coli) (protein, UniProt P20050 1-605)
chain: MSNKQLVKPKTETKTEITTEQSQKLLQTMLTMSFGCLAFLRGLFPDDIFVDQRFVPEKVEKNYNKQNTSQNNSIKIKTLIRGKSAQADLLLDWLEKGVFKSIRLKCLKALSLGIFLEDPTDLLENYIFSFDYDEENNVNINVNLSGNKKGSKNADPENETISLLDSRRMVQQLMRRFIIITQSLEPLPQKKFLTMRLMFNDNVDEDYQPELFKDATFDKRATLKVPTNLDNDAIDVGTLNTKHHKVALSVLSAATSSMEKAGNTNFIRVDPFDLILQQQEENKLEESVPTKPQNFVTSQTTNVLGNLLNSSQASIQPTQFVSNNPVTGICSCECGLEVPKAATVLKTCKSCRKTLHGICYGNFLHSSIEKCFTCIFGPSLDTKWSKFQDLMMIRKVFRFLVRKKKGFPASITELIDSFINVEDQNNEVKERVAFALFVFFLDETLCLDNGGKPSQTIRYVTSSVLVDVKGIVIPNTRKQLNVNHEYKWHFTTSSPKAESFYQEVLPNSRKQVESWLQDITNLRKVYSEALSPSSTLQELDLNSSLPTQDPIISGQKRRRYDLDEYLEEDKSSVVNDTIKAKDFDESVPAKIRKISVSKKTLKSNW
For the molecule B6, in assay [4], the binding result is given as “no binding”.

B7: 3HA-Red1 (full length, Red1 1-827), pGAL1::3HA-RED1 (protein, UniProt P14291 1-827)
chain: MEGLKKKIFGVCLKNDLAQTRNETKGIHYGLMTLETSKQLQEFLHLLVIKREVIQNFELLFHIINVAVKITDSNLPSDDIWHFILKLRFSSEINIDEDSKVLNYLLETGIAMENPVSWKCLAVISSILSSVPQSKKIITNLIETEHAKKIGQLFDNIQDLQQGNFLVEILSNCFKKSASNSKKVEKIPQLWQSRSKNKFFFENEFYPFSSKNGSLQTCQFLCNNFMSTLSFTGILRQVSYSGSETLKNLRIFKKKDDENSYFIQCIYNKIYLWLDEKAPLEFERKKIRITKNLKNKIQIKLRQPFHECVRTTADKTALLFNKTKGFQLEFEDEKLGETFFHNVNNIPKISEVQNFLVLDYIEEEPENEGEEEEQIGRADEQKEDEEEESLDELSTPMVYPIKSSIPHNHNEKVQLVTPDRSVSIRSDEWDLKSNTEDEEGNVLADLKISSTKETKRQTDYVHIDSEDQSPVVSAQMRKMRRESTKTLEILRQEFKDKDVQNKEDQSEQIQNPFVNTSSLVVGKSCLVNPKEKPNIDQTVVGITELKSNSSIKKRDINILDTIFGQPPSKKQKQFHKKEKKKQQKKLTNFKPIIDVPSQDKRNLRSNAPTKPKSIKVSKLRTDKKVTGEKSSPETAAEKVDDQTVRSNDEQAMSRATKEKCFPDVNEGKEITKDDAKVSLESKKNNETFVDSSVVEKHTPPDKDCNNCNITDILESTTVIDLQSPHGLSAPGQNTFTNKLQEQIYSSINHFSNELVRKISIINQELNKKILKELSEKYQKLFSELQDNFQNDTNEMLKFMGEIKDMMNLPEDQLVHAIRTRKFDNNKR
Take B7: the binding result in assay [5] is listed as “binds”.

B8: MBP-Red1^1-819/I743R (domain or fragment, UniProt P14291 1-819)
chain: MEGLKKKIFGVCLKNDLAQTRNETKGIHYGLMTLETSKQLQEFLHLLVIKREVIQNFELLFHIINVAVKITDSNLPSDDIWHFILKLRFSSEINIDEDSKVLNYLLETGIAMENPVSWKCLAVISSILSSVPQSKKIITNLIETEHAKKIGQLFDNIQDLQQGNFLVEILSNCFKKSASNSKKVEKIPQLWQSRSKNKFFFENEFYPFSSKNGSLQTCQFLCNNFMSTLSFTGILRQVSYSGSETLKNLRIFKKKDDENSYFIQCIYNKIYLWLDEKAPLEFERKKIRITKNLKNKIQIKLRQPFHECVRTTADKTALLFNKTKGFQLEFEDEKLGETFFHNVNNIPKISEVQNFLVLDYIEEEPENEGEEEEQIGRADEQKEDEEEESLDELSTPMVYPIKSSIPHNHNEKVQLVTPDRSVSIRSDEWDLKSNTEDEEGNVLADLKISSTKETKRQTDYVHIDSEDQSPVVSAQMRKMRRESTKTLEILRQEFKDKDVQNKEDQSEQIQNPFVNTSSLVVGKSCLVNPKEKPNIDQTVVGITELKSNSSIKKRDINILDTIFGQPPSKKQKQFHKKEKKKQQKKLTNFKPIIDVPSQDKRNLRSNAPTKPKSIKVSKLRTDKKVTGEKSSPETAAEKVDDQTVRSNDEQAMSRATKEKCFPDVNEGKEITKDDAKVSLESKKNNETFVDSSVVEKHTPPDKDCNNCNITDILESTTVIDLQSPHGLSAPGQNTFTNKLQEQRYSSINHFSNELVRKISIINQELNKKILKELSEKYQKLFSELQDNFQNDTNEMLKFMGEIKDMMNLPEDQLVHAIRT
In the case of B8, in assay [3], the binding entry is “binds”.
